Patent US12111318B2, “Method for treating cancer based on expression levels of translationally controlled tumor protein (TCTP)” (KOREA UNIVERSITY RESEARCH AND BUSINESS FOUNDATION, priority 2020, dated 2024)
At least one compound was matched to its structure with a doubt left.

Legend:
CT26 TCTP cells = experiment: Cell viability assay (trypan blue exclusion), CT26 TCTP cells; format: cell-based; conditions: CT26 TCTP vs CT26 No cells, 24 hours
Procedure: CT26 tumor cells were treated with indicated concentrations of cisplatin, dihydroartemisinin, rapamycin, sertraline, and thioridazine for 24 hours. Cell viability was measured by the trypan blue exclusion assay, and the concentrations causing a 50% decrease in cell viability (IC50 values) were determined.

CT26 TCTP tumor cells = conditions: all tumor:T cell ratios
Procedure: The tumor cells were harvested by trypsinization and washed once with DMEN (Thermo Fisher, USA) containing 0.1% fetal bovine (FBS), resuspended, and labeled in 0.1% DMEN with 10 μM CFSE for 10 minutes in a 37° C. incubator with 5% CO2. Then, the CFSE-labeled (MCF-7, HCT116, CaSki, MDA-MB-231) tumor cells were resuspended in 10 μM MART-1 peptide containing 1 ml of DMEM. In the case of A375 and 526Mel, the peptide-pulsing process was not needed. After peptide-pulsing for 1 hour, the cells were incubated for 4 hours with MART-1- or the NY-ESO1-specific CD8+ T cell lines at an E/T ratio of 1:1. […] All analysis was performed using a Becton Dickinson FACSverse (BD Bioscience, USA).
To further investigate the effect of each drug on sensitizing TCTP^high tumor cells to CTL-mediated killing, CT26 TCTP tumor cells were incubated with CTLs at various tumor cell-T cell ratios after treatment with a sublethal dose of each drug.
To quantify the synergistic effects of treatment of each drug with CTLs, a combination score was calculated based on changes in the percentage of apoptosis in drug-treated tumor cells with or without CTLs (see the following formula 1). […] Formula 1

[1] = system: EGFR-AKT-MCL-1/CXCL10 pathway; experiment: Western blot of the EGFR-AKT-MCL-1/CXCL10 pathway in TCTP high tumor cells; format: cell-based, human; conditions: all tested cells
[2] = system: MDA-MB-231 P3, 526Mel and HCT116 cells; experiment: CTL-mediated apoptosis of TCTP high tumor cells (flow cytometry); format: cell-based, human; conditions: compared to siGFP- or PBS-treated control cells
[3] = system: MDA-MB-231 P3, 526Mel and HCT116 cells; experiment: Transwell-based T cell chemotaxis assay with conditioned media of TCTP high tumor cells; set-up: species or system human; conditions: compared to siGFP- or PBS-treated control cells
A375 P3 tumor = experiment: ACT-refractory A375 P3 tumor-bearing NOD/SCID mice, NY-ESO1-specific CTLs with or without DHA; format: in vivo, mouse

## C[C@H]1[C@@H](O)O[C@@H]2O[C@@]3(C)CC[C@H]4[C@H](C)CC[C@@H]1[C@@]24OO3 [DHA, dihydroartemisinin]
CT26 TCTP cells
  Susceptibility of CT26 TCTP cells to the drug: more susceptible
CT26 TCTP tumor cells
  Combination score (% active-caspase 3+ tumor cells by drug and CTLs / by drug): remarkably higher than other drugs at all ratios
[1]
  Levels of EGFR-AKT-MCL-1/CXCL10 pathway molecules: identical effects on the level of these molecules compared to treatment with siTPT1
[2]
  Susceptibility to CTL-mediated apoptosis: more susceptible to CTL-mediated apoptosis
[3]
  T cell chemotaxis capacity: increased T cell chemotaxis capacity
A375 P3 tumor; DHA relative to PBS control
  Overall cytotoxic effects of CTLs (percentage of apoptotic cells in the tumor): greater
A375 P3 tumor; DHA-treated vs PBS-treated mice
  Proportion of NY-ESO1-specific CTLs in the tumors: increased
A375 P3 tumor; dual therapy with CTLs and DHA, A375 P3
  Tumor growth: retarded tumor growth
A375 P3 tumor; dual therapy with CTLs and DHA, compared to the other groups
  Survival of the mice: prolonged survival of the mice
